The list shows only some results of the screen, not a fair sample: it is rich in T/C values a quarter to a half above the control, in often repeated tests (any T/C) and in doses without a T/C. Other doses and runs of a compound stand elsewhere. T/C is the treated group as % of the vehicle group. Some doses have a count of surviving animals in place of a T/C: the source holds a T/C of zero for them, seemingly a mark for toxic or unscored doses. Some doses without a T/C left all or most animals alive at the check, yet need not have been tolerated: the source hardly ever lists a survival T/C far under the control, and the zero likely stands for such cases as well. Counts of survivors are from the toxicity check (mostly the fifth day) where no day follows; animals may have died later. Schedules are NCI's codes, taken here to give the interval after Q, in days (D) or hours (H), and the number of doses after X. Where survival is the endpoint, this PubChem deposit counts one and a half times the control or more as active, and values a quarter to a half above the control carry no call in these data; other NCI protocols may use other cut-offs.
Test system: BDF1 mice, s.c. Lewis lung carcinoma, T/C %
Assay: NCI In Vivo Anticancer Drug Screen. Data for tumor model Lewis Lung Carcinoma (subcutaneous) in B6D2F1 (BDF1) mice
Method in brief: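 First, mice carry a transplantable tumor. Next, groups receive either compound or vehicle. Finally, survival or tumor dimensions in the dosed animals are divided by the corresponding control figure.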

[1] = T/C endpoint: median survival time, dose: 75.0 mg/kg/injection, schedule: Q01DX009 (ip), vehicle: saline with Tween-80, higher T/C = longer survival
[2] = T/C endpoint: median survival time, dose: 25.0 mg/kg/injection, schedule: Q01DX009 (ip), vehicle: Klucel (hydroxypropylcellulose) (HPC), higher T/C = longer survival
[3] = T/C endpoint: median survival time, dose: 100.0 mg/kg/injection, schedule: Q01DX009 (ip), vehicle: Klucel (hydroxypropylcellulose) (HPC), higher T/C = longer survival

With `Cc1ccc(NC(=O)N(CCBr)N=O)cc1` the survivor count (T/C endpoint: median survival time, dose: 3.12 mg/kg/injection, schedule: Q01DX009 (ip), vehicle: other, higher T/C = longer survival) was 10 of 10 and the survivor count (T/C endpoint: median survival time, dose: 12.5 mg/kg/injection, schedule: Q01DX009 (ip), vehicle: other, higher T/C = longer survival) was 10 of 10.

`NC(=S)N/N=C/c1cc(-c2cccc(N)c2)ccn1` was tested, and the T/C (T/C endpoint: median survival time, dose: 6.25 mg/kg/injection, schedule: Q01DX009 (ip), vehicle: saline with Tween-80, higher T/C = longer survival) was 132 % of control, the T/C [1] was 132 % of control and the survivor count [1] was 10 of 10.

With `C1#CCCCCCC#CCCCC1` the survivor count [2] was 10 of 10, the survivor count (T/C endpoint: median survival time, dose: 50.0 mg/kg/injection, schedule: Q01DX009 (ip), vehicle: Klucel (hydroxypropylcellulose) (HPC), higher T/C = longer survival) was 10 of 10 and the survivor count [3] was 10 of 10. The survivor count (T/C endpoint: median survival time, dose: 200.0 mg/kg/injection, schedule: Q01DX009 (ip), vehicle: Klucel (hydroxypropylcellulose) (HPC), higher T/C = longer survival) was 10 of 10.

`NC(=O)N(CCCl)N=O` was tested, and the survivor count (T/C endpoint: mean tumor weight, dose: 5.0 mg/kg/injection, schedule: Q01DX011 (ip), vehicle: saline, higher T/C = larger tumour) was 2 of 6, the T/C (T/C endpoint: median survival time, dose: 2.0 mg/kg/injection, schedule: Q01DX001 (ip), vehicle: saline + alcohol, higher T/C = longer survival) was 135 % of control and the T/C (T/C endpoint: median survival time, dose: 4.0 mg/kg/injection, schedule: Q01DX001 (ip), vehicle: saline + alcohol, higher T/C = longer survival) was 145 % of control. For the same compound, the survivor count (T/C endpoint: median survival time, dose: 8.0 mg/kg/injection, schedule: Q01DX001 (ip), vehicle: saline + alcohol, higher T/C = longer survival) was 10 of 10 and the survivor count (T/C endpoint: median survival time, dose: 16.0 mg/kg/injection, schedule: Q01DX001 (ip), vehicle: saline + alcohol, higher T/C = longer survival) was 9 of 10.

With `COC1=NCN=C2SC=C(N)N=C12` the survivor count (T/C endpoint: median survival time, dose: 100.0 mg/kg/injection, schedule: Q01DX009 (ip), vehicle: saline, higher T/C = longer survival) was 8 of 10.

In the case of `O=C1N(Cl)C(=O)C(c2ccc(Cl)cc2)(c2ccc(Cl)cc2)N1Cl`, the survivor count [3] is reported as 10 of 10.

In the case of `CCCC(=O)NC1=C(N2CC2)C(=O)C(NC(=O)CCC)=C(N2CC2)C1=O`, the survivor count (T/C endpoint: mean tumor weight, dose: 6.0 mg/kg/injection, schedule: Q01DX011 (ip), vehicle: other, higher T/C = larger tumour) is reported as 0 of 6.

For `CC[C@H]1CN2CCc3cc(OC)c(OC)cc3[C@@H]2C[C@@H]1C[C@H]1NCCc2c1[nH]c1ccc(O)cc21`, the survivor count (T/C endpoint: median survival time, dose: 2.0 mg/kg/injection, schedule: Q01DX009 (ip), vehicle: Klucel (hydroxypropylcellulose) (HPC), higher T/C = longer survival) was 10 of 10 and the survivor count (T/C endpoint: median survival time, dose: 4.0 mg/kg/injection, schedule: Q01DX009 (ip), vehicle: Klucel (hydroxypropylcellulose) (HPC), higher T/C = longer survival) was 0 of 10.

In the case of `COc1cc(C2c3cc4c(cc3CC3COC(=O)C32)OCO4)cc(OC)c1O` (stereo unspecified), the survivor count (T/C endpoint: median survival time, dose: 4.0 mg/kg/injection, schedule: Q01DX009 (ip), vehicle: saline with Tween-80, higher T/C = longer survival) is reported as 10 of 10.

In the case of `CC1CCCCN1CCNc1ccc(CO)c2sc3ccccc3c(=O)c12` (stereo unspecified), the T/C (T/C endpoint: median survival time, dose: 200.0 mg/kg/injection, schedule: Q01DX009 (ip), vehicle: saline with Tween-80, higher T/C = longer survival) is reported as 135 % of control.

`CCOC(=O)C(C)(C)Br` was tested, and the survivor count (T/C endpoint: mean tumor weight, dose: 1000.0 mg/kg/injection, schedule: Q01DX011 (ip), vehicle: other, higher T/C = larger tumour) was 0 of 6.

In the case of `CC(=O)Oc1ccc(OC(C)=O)c2c1C(=O)C=CC2=O`, the survivor count (T/C endpoint: median survival time, dose: 6.25 mg/kg/injection, schedule: Q01DX009 (ip), vehicle: Klucel (hydroxypropylcellulose) (HPC), higher T/C = longer survival) is reported as 6 of 10, the survivor count (T/C endpoint: median survival time, dose: 12.5 mg/kg/injection, schedule: Q01DX009 (ip), vehicle: Klucel (hydroxypropylcellulose) (HPC), higher T/C = longer survival) is reported as 4 of 10 and the survivor count [2] is reported as 0 of 10.

For `Cc1cc(C)c(NC(=O)N(CCCl)N=O)cc1C`, the survivor count (T/C endpoint: median survival time, dose: 100.0 mg/kg/injection, schedule: Q01DX009 (ip), vehicle: other, higher T/C = longer survival) was 6 of 10.

In the case of `COc1cc2c[n+](C)c3c4cc5c(cc4ccc3c2cc1OC)OCO5`, the survivor count (T/C endpoint: median survival time, dose: 40.0 mg/kg/injection, schedule: Q01DX009 (ip), vehicle: water, higher T/C = longer survival) is reported as 10 of 10 and the survivor count (T/C endpoint: median survival time, dose: 80.0 mg/kg/injection, schedule: Q01DX009 (ip), vehicle: water, higher T/C = longer survival) is reported as 10 of 10.

For `Cc1nc(N)nc(N)c1-c1ccc(Cl)c(Cl)c1`, the survivor count (T/C endpoint: mean tumor weight, dose: 3.0 mg/kg/injection, schedule: Q01DX011 (ip), vehicle: other, higher T/C = larger tumour) was 3 of 6, the survivor count (T/C endpoint: mean tumor weight, dose: 9.0 mg/kg/injection, schedule: Q01DX011 (ip), vehicle: other, higher T/C = larger tumour) was 2 of 6 and the survivor count (T/C endpoint: median survival time, dose: 4.0 mg/kg/injection, schedule: Q02DX009 (ip), vehicle: Klucel (hydroxypropylcellulose) (HPC), higher T/C = longer survival) was 10 of 10. For the same compound, the survivor count (T/C endpoint: median survival time, dose: 6.25 mg/kg/injection, schedule: Q01DX009 (ip), vehicle: saline, higher T/C = longer survival) was 10 of 10, the survivor count (T/C endpoint: median survival time, dose: 8.0 mg/kg/injection, schedule: Q02DX009 (ip), vehicle: Klucel (hydroxypropylcellulose) (HPC), higher T/C = longer survival) was 10 of 10 and the survivor count (T/C endpoint: median survival time, dose: 12.5 mg/kg/injection, schedule: Q01DX009 (ip), vehicle: saline, higher T/C = longer survival) was 10 of 10. For the same compound, the survivor count (T/C endpoint: median survival time, dose: 16.0 mg/kg/injection, schedule: Q02DX009 (ip), vehicle: Klucel (hydroxypropylcellulose) (HPC), higher T/C = longer survival) was 10 of 10 and the survivor count (T/C endpoint: median survival time, dose: 25.0 mg/kg/injection, schedule: Q01DX009 (ip), vehicle: saline, higher T/C = longer survival) was 10 of 10.
